Results reported in patent EP0400319A1, “4-(4'-Halophenyl)-2-methyl-1,2,3,4-tetrahydroisoquinolines and process for their preparation” (N I S PRI VCHTI, priority 1989, dated 1990).
Where a name gives a salt, the structure may show the parent alone. At least one read-out could not be matched to a standard name with certainty.

System: uptake von Noradrenalin (NA)
Format: biochemical, Ratten
Settings: synaptosomes from Hypothalamus, [3H]-NA, 10 min, 37°C; read-out: NA Aktivität

| SMILES | IC50 |
| --- | --- |
| CN1Cc2ccccc2C(c2ccc(Br)cc2)C1 (racemic) [1a, 4-(4′-Bromphenyl)-2-methyl-1,2,3,4-tetrahydroisochinolin Hydrochlorid] | 10 nM |
| CN1Cc2ccccc2C(c2ccc(F)cc2)C1 (racemic) [1b, 4-(4′-fluorphenyl)-2-methyl-1,2,3,4-tetrahydroisochinolin Hydrochlorid] | 10 nM |
